Test results reported in patent US20220211037A1, “BIOSENSORS FOR DROUGHT STRESS IN PLANTS” (The Regents of the University of California, priority 2019, published 2022).
No constants are given. Whether binding was seen depends on the method and setting. Some results given as binding are weak or reduced against the parent protein; the word gives no strength.

How the values were obtained:
[1] = target: abscisic acid receptor pyrabactin resistance 1 like protein PYL3 (Arabidopsis thaliana) (UniProt Q9SSM7); assay: static light scattering, average molar mass against ABA concentration
[2] = target: abscisic acid receptor pyrabactin resistance 1 like protein PYL3 (Arabidopsis thaliana) (UniProt Q9SSM7); assay: static light scattering, 1.9 µM protein, increasing ABA
[3] = target: abscisic acid receptor pyrabactin resistance 1 like protein PYL3 (Arabidopsis thaliana) (UniProt Q9SSM7); assay: comparison with unconjugated PYL3

Measured: binding

B1: abscisic acid receptor pyrabactin resistance 1 like protein PYL3 (receptor)
chain: MNLAPIHDPSSSSTTTTSSSTPYGLTKDEFSTLDSIIRTHHTFPRSPNTCTSLIAHRVDAPAHAIWRFVRDFANPNKYKHFIKSCTIRVNGNGIKEIKVGTIREVSVVSGLPASTSVEILEVLDEEKRILSFRVLGGEHRLNNYRSVTSVNEFVVLEKDKKKRVYSVVLESYIVDIPQGNTEEDTRMFVDTVVKSNLQNLAVISTASPT
binds: all assays above
